Assay results taken from PMC9114396.
Results are given in words; binding and its absence hold for the method and conditions named. In cells and extracts the contact can be indirect. Some results given as binding are weak or reduced against the parent protein; the word gives no strength. For some assays here: Sequences can lack the tags named with a protein.

Key:
[1] = target: T1, stathmin1-Flag (wild type) (UniProt P16949); test: co-IP; 293T cells transiently transfected for 48 h, lysed with 0.1% NP40 with 1 mM PMSF and 1 mM Na3VO4; lysate precleaned by IgG, HA, MYC or Flag beads overnight at 4 °C, immunoblot; cells treated with NAM, MG132, or co-transfected with ERBB2^S310F-Flag, PCAF-HA, sirt2-HA or Ub-MYC as told for each panel
T1 sequence: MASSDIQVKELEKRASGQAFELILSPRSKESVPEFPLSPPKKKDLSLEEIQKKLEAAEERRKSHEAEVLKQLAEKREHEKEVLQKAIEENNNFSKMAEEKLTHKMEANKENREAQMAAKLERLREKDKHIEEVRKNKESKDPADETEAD

[2] = target: T2, stathmin1 overexpressed in GBC-SD and SGC-996 stable cells (UniProt P16949); test: co-IP; GBC-SD and SGC-996 stable cells (stathmin1 overexpression or ERBB2^S310F overexpression); cells treated with NAM, binimetinib, or siRNA against PCAF or sirt2 as told for each panel; immunoblot
T2 sequence: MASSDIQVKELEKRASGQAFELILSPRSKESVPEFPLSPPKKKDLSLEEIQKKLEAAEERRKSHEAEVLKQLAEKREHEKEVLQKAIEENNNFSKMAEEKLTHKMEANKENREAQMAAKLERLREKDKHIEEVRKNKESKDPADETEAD

Binder	binding [1]	binding [2]
RLIM-HA (enzyme, UniProt Q9NVW2 1-624) MENSDSNDKGSGDQSAAQRRSQMDRLDREEAFYQFVNNLSEEDYRLMRDNNLLGTPGESTEEELLRRLQQIKEGPPPQNSDENRGGDSSDDVSNGDSIIDWLNSVRQTGNTTRSGQRGNQSWRAVSRTNPNSGDFRFSLEINVNRNNGSQNSENENEPSARRSSGENVENNSQRQVENPRSESTSARPSRSERNSTEALTEVPPTRGQRRARSRSPDHRRTRARAERSRSPLHPMSEIPRRSHHSISSQTFEHPLVNETEGSSRTRHHVTLRQQISGPELLSRGLFAASGTRNASQGAGSSDTAASGESTGSGQRPPTIVLDLQVRRVRPGEYRQRDSIASRTRSRSQTPNNTVTYESERGGFRRTFSRSERAGVRTYVSTIRIPIRRILNTGLSETTSVAIQTMLRQIMTGFGELSYFMYSDSDSEPTGSVSNRNMERAESRSGRGGSGGGSSSGSSSSSSSSSSSSSSSSSSSSPSSSSGGESSETSSDLFEGSNEGSSSSGSSGARREGRHRAPVTFDESGSLPFLSLAQFFLLNEDDDDQPRGLTKEQIDNLAMRSFGENDALKTCSVCITEYTEGNKLRKLPCSHEYHVHCIDRWLSENSTCPICRRAVLASGNRESVV	binds	
RLIM in GBC-SD and SGC-996 stable cells (enzyme, UniProt Q9NVW2 1-624) MENSDSNDKGSGDQSAAQRRSQMDRLDREEAFYQFVNNLSEEDYRLMRDNNLLGTPGESTEEELLRRLQQIKEGPPPQNSDENRGGDSSDDVSNGDSIIDWLNSVRQTGNTTRSGQRGNQSWRAVSRTNPNSGDFRFSLEINVNRNNGSQNSENENEPSARRSSGENVENNSQRQVENPRSESTSARPSRSERNSTEALTEVPPTRGQRRARSRSPDHRRTRARAERSRSPLHPMSEIPRRSHHSISSQTFEHPLVNETEGSSRTRHHVTLRQQISGPELLSRGLFAASGTRNASQGAGSSDTAASGESTGSGQRPPTIVLDLQVRRVRPGEYRQRDSIASRTRSRSQTPNNTVTYESERGGFRRTFSRSERAGVRTYVSTIRIPIRRILNTGLSETTSVAIQTMLRQIMTGFGELSYFMYSDSDSEPTGSVSNRNMERAESRSGRGGSGGGSSSGSSSSSSSSSSSSSSSSSSSSPSSSSGGESSETSSDLFEGSNEGSSSSGSSGARREGRHRAPVTFDESGSLPFLSLAQFFLLNEDDDDQPRGLTKEQIDNLAMRSFGENDALKTCSVCITEYTEGNKLRKLPCSHEYHVHCIDRWLSENSTCPICRRAVLASGNRESVV		binds
